Results on 3 substances are retold here after PMC10933659.

Sequences of proteins named here, by UniProt entry; tags and fusion partners are left off.
UniProt Q92830: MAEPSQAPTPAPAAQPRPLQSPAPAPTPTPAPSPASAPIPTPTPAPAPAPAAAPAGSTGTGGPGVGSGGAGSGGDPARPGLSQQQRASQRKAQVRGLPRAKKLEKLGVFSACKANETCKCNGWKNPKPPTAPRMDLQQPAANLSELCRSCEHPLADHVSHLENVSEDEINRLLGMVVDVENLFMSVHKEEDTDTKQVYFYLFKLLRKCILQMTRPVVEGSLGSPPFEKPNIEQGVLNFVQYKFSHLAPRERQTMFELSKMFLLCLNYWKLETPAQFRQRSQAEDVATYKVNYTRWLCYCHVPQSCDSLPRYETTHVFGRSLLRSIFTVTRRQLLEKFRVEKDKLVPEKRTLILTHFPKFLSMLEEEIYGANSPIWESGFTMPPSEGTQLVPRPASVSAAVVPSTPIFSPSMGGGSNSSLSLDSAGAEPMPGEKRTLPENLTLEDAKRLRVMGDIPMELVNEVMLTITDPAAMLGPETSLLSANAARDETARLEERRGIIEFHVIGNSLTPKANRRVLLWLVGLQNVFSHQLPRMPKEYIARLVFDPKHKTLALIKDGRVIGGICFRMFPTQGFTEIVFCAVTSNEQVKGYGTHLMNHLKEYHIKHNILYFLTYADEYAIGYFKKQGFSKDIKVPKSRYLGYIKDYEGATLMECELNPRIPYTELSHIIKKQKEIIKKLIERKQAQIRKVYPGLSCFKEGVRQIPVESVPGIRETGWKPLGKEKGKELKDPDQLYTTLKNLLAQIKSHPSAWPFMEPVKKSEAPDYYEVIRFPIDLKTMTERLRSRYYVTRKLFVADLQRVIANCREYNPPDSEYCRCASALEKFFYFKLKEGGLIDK

No constants are given. Whether binding was seen depends on the method and setting. In cells and extracts the contact can be indirect. Some binding calls cover weakened binding; strength is not graded here.

The target of assay [1] is FLAG-KAT2A (not stated (human or mouse cDNA cloned)) (UniProt Q92830). Briefly: co-IP; lysate of HEK 293T cells overexpressing HA-VCP and FLAG-KAT2A; precipitated in both directions, western blot. In general terms: In western blotting, separated proteins are transferred to a membrane and probed.
In a further assay the target is HA-VCP (UniProt P55072). The description is as above.
Assay [2] addresses VCP (human (endogenous in hBMMSC)) (UniProt P55072). The experiment in a line: co-IP; endogenous proteins in hBMMSC lysate (RIPA buffer); indicated antibodies or control IgG overnight at 4 °C, protein A/G beads, western blot; cells with or without TNF-α.

Take HA-VCP (from UniProt P55072 1-806): the binding entry in assay [1] is recorded as “binds”.

For “FLAG-KAT2A (from UniProt Q92830 1-837) (enzyme)”, the binding result in the assay with HA-VCP is “binds”. On to “KAT2A (from UniProt Q92830 1-837) (enzyme)”, for which the binding entry in assay [2] is reported as “binds”.
